Data taken from publication doi:10.1101/2020.06.14.145961.
No constants are given. Whether binding was seen depends on the method and setting. Binding seen in cells or lysates may run through a third protein. Some results given as binding are weak or reduced against the parent protein; the word gives no strength.

Sequences of proteins named here, by UniProt entry; tags and fusion partners are left off. A change or cut given only in a name is not applied to a line headed by its entry.
UniProt O48538: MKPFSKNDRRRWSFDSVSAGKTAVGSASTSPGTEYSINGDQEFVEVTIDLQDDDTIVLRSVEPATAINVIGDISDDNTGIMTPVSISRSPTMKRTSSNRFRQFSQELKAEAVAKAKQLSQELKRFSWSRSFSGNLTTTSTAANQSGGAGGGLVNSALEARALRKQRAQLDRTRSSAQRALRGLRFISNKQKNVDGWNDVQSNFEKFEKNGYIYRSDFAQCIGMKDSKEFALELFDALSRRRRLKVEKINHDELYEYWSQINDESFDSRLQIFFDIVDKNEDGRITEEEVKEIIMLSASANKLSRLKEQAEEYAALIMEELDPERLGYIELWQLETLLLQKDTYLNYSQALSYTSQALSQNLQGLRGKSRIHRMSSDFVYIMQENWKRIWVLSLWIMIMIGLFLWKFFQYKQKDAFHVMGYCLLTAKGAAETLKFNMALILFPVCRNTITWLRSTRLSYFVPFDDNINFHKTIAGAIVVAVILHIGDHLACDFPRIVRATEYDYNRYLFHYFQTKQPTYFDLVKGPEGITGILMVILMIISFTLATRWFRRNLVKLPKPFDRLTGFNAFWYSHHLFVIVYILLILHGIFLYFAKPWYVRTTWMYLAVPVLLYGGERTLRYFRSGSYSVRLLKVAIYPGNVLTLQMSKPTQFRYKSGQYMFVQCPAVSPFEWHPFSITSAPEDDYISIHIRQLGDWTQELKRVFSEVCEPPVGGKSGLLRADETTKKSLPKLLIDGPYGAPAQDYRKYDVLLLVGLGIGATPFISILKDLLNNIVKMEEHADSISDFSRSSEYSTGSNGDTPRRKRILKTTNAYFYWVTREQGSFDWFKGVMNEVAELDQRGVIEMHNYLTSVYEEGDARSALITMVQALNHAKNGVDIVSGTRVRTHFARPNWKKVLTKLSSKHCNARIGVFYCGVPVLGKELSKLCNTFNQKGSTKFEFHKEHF
UniProt Q9FIJ0: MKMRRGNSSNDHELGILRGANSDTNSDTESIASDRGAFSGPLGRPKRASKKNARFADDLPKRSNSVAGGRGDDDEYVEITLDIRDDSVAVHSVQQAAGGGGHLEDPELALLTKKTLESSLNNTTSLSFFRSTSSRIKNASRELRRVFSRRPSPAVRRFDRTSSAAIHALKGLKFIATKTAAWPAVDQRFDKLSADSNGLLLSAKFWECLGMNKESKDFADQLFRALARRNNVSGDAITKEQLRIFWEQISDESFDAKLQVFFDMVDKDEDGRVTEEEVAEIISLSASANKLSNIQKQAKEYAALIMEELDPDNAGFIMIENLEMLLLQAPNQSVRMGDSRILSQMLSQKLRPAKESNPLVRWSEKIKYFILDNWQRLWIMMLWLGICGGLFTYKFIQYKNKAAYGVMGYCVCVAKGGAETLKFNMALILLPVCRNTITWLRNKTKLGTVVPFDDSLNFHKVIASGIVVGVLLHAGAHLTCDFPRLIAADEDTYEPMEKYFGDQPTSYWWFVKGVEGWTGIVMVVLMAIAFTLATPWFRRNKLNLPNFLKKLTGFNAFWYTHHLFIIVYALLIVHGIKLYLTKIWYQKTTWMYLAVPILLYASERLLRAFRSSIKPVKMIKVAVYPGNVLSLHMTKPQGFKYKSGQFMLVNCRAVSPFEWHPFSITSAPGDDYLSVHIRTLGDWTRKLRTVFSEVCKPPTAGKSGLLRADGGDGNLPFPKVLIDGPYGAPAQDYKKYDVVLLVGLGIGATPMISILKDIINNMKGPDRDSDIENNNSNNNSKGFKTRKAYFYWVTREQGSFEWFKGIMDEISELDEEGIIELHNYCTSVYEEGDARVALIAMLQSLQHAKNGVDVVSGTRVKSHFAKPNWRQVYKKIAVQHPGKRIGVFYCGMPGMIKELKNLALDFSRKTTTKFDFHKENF
UniProt Q38912: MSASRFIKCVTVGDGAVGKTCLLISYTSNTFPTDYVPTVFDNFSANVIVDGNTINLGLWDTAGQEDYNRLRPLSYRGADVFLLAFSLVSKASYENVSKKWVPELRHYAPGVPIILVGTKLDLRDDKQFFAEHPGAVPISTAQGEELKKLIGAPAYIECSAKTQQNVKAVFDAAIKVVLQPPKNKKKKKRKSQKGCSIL

What was measured:
[1] = target: GFP-RBOHF (Arabidopsis thaliana) (UniProt O48538); assay: FRET or BRET
[2] = target: GFP-RBOHD (RESPIRATORY BURST OXIDASE HOMOLOG PROTEIN D) (Arabidopsis thaliana) (UniProt Q9FIJ0); assay: FRET or BRET

## RFP-ROP6-CA (constitutive active, GTP-locked Rho-of-Plant 6, G15V) (from UniProt Q38912 1-198) (enzyme)
[1]
  binding: binds
[2]
  binding: binds

## RFP-ROP6-DN (dominant negative, GDP-locked Rho-of-Plant 6, T20N) (from UniProt Q38912 1-198) (enzyme)
[1]
  binding: no binding
[2]
  binding: no binding
